Reference: paper PMC6322727
Results are given in words; binding and its absence hold for the method and conditions named. In cells and extracts the contact can be indirect. Some results given as binding are weak or reduced against the parent protein; the word gives no strength. Tags and fused reporters may be left off the sequences shown.

Molecular target: T1, FLAG-DGAT2 (diacylglycerol acyltransferase-2) (murine (said of the DGAT2 in BioId/DGAT2)) (UniProt Q9DCV3)
T1 sequence: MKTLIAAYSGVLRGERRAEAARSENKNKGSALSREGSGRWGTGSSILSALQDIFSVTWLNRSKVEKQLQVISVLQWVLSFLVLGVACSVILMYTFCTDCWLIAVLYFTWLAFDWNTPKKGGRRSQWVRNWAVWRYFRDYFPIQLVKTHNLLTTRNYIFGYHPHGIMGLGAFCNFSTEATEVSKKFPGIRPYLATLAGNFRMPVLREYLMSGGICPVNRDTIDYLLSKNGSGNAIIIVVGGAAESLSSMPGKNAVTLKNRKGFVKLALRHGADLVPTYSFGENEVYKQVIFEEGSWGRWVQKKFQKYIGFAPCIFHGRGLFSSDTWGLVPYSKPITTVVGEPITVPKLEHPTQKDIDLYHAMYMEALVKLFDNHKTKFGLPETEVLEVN
Assay: co-IP; anti-FLAG agarose immunoprecipitate of HEK-293T cells expressing FL-DGAT2, solubilised with 0.5% CHAPS in PBS, 4 C, eluted with FLAG peptide; immunoblot with anti-calnexin and anti-PDI; control: cells expressing Myc-DGAT2

binding: binds
B1: calnexin (protein, UniProt P27824 21-592)
chain: HDGHDDDVIDIEDDLDDVIEEVEDSKPDTTAPPSSPKVTYKAPVPTGEVYFADSFDRGTLSGWILSKAKKDDTDDEIAKYDGKWEVEEMKESKLPGDKGLVLMSRAKHHAISAKLNKPFLFDTKPLIVQYEVNFQNGIECGGAYVKLLSKTPELNLDQFHDKTPYTIMFGPDKCGEDYKLHFIFRHKNPKTGIYEEKHAKRPDADLKTYFTDKKTHLYTLILNPDNSFEILVDQSVVNSGNLLNDMTPPVNPSREIEDPEDRKPEDWDERPKIPDPEAVKPDDWDEDAPAKIPDEEATKPEGWLDDEPEYVPDPDAEKPEDWDEDMDGEWEAPQIANPRCESAPGCGVWQRPVIDNPNYKGKWKPPMIDNPSYQGIWKPRKIPNPDFFEDLEPFRMTPFSAIGLELWSMTSDIFFDNFIICADRRIVDDWANDGWGLKKAADGAAEPGVVGQMIEAAEERPWLWVVYILTVALPVFLVILFCCSGKKQTSGMEYKKTDAPQPDVKEEEEEKEEEKDKGDEEEEGEEKLEEKQKSDAEEDGGTVSQEEEDRKPKAEEDEILNRSPRNRKPRRE
